In patent US4431664A, “Compound with antiulcerogenic activity, process for the preparation thereof and pharmaceutical composition therefrom” (Ausonia Farmaceutici s.r.l., priority 1981, dated 1984):
At least one compound was matched to its structure with a doubt left.

Assay: Antiulcerogenic activity and duration of effect, general statement
Format: in vivo
Conditions: compared with cimetidine and ranitidine, in words

With `CN(C)Cc1ccc(CSCCNC(=C[N+](=O)[O-])NCc2ccc3c(c2)OCO3)o1` [AP 880, N-(2-(((5-(dimethylamino)-methyl-2-furanyl)-methyl)-thio)-ethyl)-N'-(3,4-methylenedioxybenzyl)-2-nitro-1,1-ethendiamine] as the molecule, how does the antiulcerogenic activity read?
Its antiulcerogenic activity is “substantially higher than that of very well known compounds having analogue structure, such as cimetidine and ranitidine”.

And the “duration of pharmacological effect” value?
Its value is “more long lasting pharmacological effect”.
